Test results taken from patent US20080305054A1, “Use of Glycosylated Flavanones for the Browning of Skin or Hair” (SYMRISE GMBH & CO. KG, priority 2004, published 2008).
Some entries share one result that the patent states for a list of compounds.

What was measured:
[1] = tested on: B16V mouse melanoma cells; test: Cytotoxicity determination (MTT); assay type: cell-based; settings: MTT viability, 48 h incubation, concentration at which 50% of the cells are vital
Method: B16V mouse melanoma cells are disseminated in a 96-well microtitre plate in a concentration of 2×10^4 cells/well (B16V). After cultivation for 24 h at 37° C. and 5% CO2 in RPMI medium (B16V cells), enriched with 10% foetal calf serum, the medium is drawn off. Various concentrations of the test substances, dissolved in fresh medium enriched with 5% foetal calf serum, are added and incubated for a further 48 h. In parallel the cells are incubated with SDS as standard in concentrations of 0.01 mM, 0.1 mM, 1 mM and 10 mM. After incubation the medium is drawn off and the cells are incubated for 2 h with MTT (3-[4,5-dimethylthiazol-2-yl]2,5-diphenyl tetrazolium bromide). After extraction of the dye (MTT) with acetic acid SDS in DMSO (10 min), the absorption (A) is measured at 570 nm.
The mean and standard deviation of the controls, blanks and samples are calculated. The mean of the blank is subtracted from the means of the controls and samples. The viability of the cells is stated as a percentage relative to the controls (100%):
Viability (%)=[(Atest compound/Acontrol)×100]
The IC50 (mean inhibitory concentration) indicates the test substance concentration at which 50% of the cells are vital.

[2] = tested on: B16V mouse melanoma cells; test: Pigmenting effect (stimulation of pigmentation); assay type: cell-based; settings: 96 h with 10 nM α-MSH; concentration at which pigmentation is stimulated by 50%; non-cytotoxic concentration range
Method: mouse melanoma cells are disseminated in a 96-well microtitre plate in a concentration of 5×10^3 cells/well. After cultivation for 24 h at 37° C. and 5% CO2 in RPMI medium, enriched with 10% foetal calf serum, various concentrations of the test substances and 10 nM α-MSH (α-melanocyte stimulating hormone) are added and incubated for a further 96 h. […] The stimulation of pigmentation in the presence of the test compounds was calculated using the following equation: Stimulation of pigmentation (%)=[(A test compound/A control)×100]-100 From the stimulation of pigmentation (%) in a series of dilutions of test compounds, the EC50 for each test compound was calculated. This is the concentration of a test compound at which pigmentation is stimulated by 50%.

SMILES | IC50 ([1]; listed as naringin) [µM] | EC50 [2] [µM] | IC50 ([1]; listed as neohesperidin) [µM]
C[C@@H]1O[C@@H](O[C@H]2[C@H](Oc3cc(O)c4c(c3)OC(c3ccc(O)cc3)CC4=O)O[C@H](CO)[C@@H](O)[C@@H]2O)[C@H](O)[C@H](O)[C@H]1O (stereo partly drawn) [Naringin] | > 1000 | < 2 | 
COc1ccc(C2CC(=O)c3c(O)cc(OC4OC(CO)C(O)C(O)C4OC4OC(C)C(O)C(O)C4O)cc3O2)cc1O (stereo not drawn) [Neohesperidin] |  |  | > 1000
